Measurements as given in ChEMBL document CHEMBL1909621, “Synthesis and biological evaluation of novel nitrogen- and sulfur-containing hetero-1,4-naphthoquinones as potent antifungal and antibacterial agents” (2011).

System: Aspergillus niger
Test: Antifungal activity against Aspergillus niger F-1119 at 0.1% after 48 to 72 hrs by diffusion technique
Assay type: functional
How it was run: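 Fungi. Disk diffusion: 10⁹ spores (cells)/1 mL inoculum. Incubated 48–72 h at 28–30 °C. Zone around disk measured, with a nystatin control disk. Serial dilution: compounds dissolved in DMSO and diluted into wort agar, then inoculated. Incubated at 30 °C for 24–72 h. MIC recorded.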

Sequence: NYSTATIN
- inhibition zone (IZ): 20 mm
